In publication PMC10341432 one finds binding data, which are given here for one molecule.

The chains behind the UniProt entries cited, without tags or fusion partners.
UniProt P08183: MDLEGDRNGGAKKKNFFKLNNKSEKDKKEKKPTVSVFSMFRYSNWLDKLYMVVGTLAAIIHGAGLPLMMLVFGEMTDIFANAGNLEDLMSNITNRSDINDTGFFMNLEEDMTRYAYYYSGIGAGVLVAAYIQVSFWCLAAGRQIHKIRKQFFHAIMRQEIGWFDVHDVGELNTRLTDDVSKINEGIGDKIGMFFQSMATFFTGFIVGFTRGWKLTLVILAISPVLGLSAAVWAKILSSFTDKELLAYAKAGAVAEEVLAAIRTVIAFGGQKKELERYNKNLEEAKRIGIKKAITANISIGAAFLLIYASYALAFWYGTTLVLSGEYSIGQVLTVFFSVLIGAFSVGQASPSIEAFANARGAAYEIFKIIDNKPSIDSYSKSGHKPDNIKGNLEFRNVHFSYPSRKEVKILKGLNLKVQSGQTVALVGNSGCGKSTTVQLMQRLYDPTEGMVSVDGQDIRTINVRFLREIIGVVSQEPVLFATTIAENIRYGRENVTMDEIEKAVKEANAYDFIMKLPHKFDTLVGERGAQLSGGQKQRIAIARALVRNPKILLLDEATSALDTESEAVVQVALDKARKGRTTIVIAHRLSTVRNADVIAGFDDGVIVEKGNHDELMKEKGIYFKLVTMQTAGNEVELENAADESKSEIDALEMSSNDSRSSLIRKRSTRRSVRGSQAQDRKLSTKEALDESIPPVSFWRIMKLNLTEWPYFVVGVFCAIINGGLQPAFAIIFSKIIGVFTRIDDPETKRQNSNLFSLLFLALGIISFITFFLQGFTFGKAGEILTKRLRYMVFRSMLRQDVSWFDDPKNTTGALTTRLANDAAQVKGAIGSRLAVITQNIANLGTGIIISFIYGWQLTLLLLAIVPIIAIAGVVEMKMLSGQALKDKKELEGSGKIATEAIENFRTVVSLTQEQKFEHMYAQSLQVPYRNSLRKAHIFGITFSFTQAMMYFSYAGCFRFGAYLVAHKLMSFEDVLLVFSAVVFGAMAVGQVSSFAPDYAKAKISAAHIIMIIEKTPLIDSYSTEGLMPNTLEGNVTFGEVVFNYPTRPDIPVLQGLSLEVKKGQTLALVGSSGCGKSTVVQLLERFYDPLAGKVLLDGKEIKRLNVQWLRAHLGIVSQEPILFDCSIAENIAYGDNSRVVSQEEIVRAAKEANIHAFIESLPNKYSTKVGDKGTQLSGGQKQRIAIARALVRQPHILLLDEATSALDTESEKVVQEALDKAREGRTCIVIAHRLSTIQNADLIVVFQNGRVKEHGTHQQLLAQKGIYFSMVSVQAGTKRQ

This assay deals with P-glycoprotein (human), as expressed on NIH 3T3 MDR1 cells (human) (UniProt P08183). Briefly: affinity purification with mass spectrometry; Pgp enriched with 15D3 or UIC2 mAb on Protein G magnetic beads from membrane preparations of NIH 3T3 MDR1 cells; nine washes with RIPA buffer; cross-linked with DSSO or BS2Gd0/d4 on living cells before, or with DSSO on-bead after immunoprecipitation; on-bead trypsin digestion, LC-MS/MS; proteins found with Pgp.

No constants are given. Whether binding was seen depends on the method and setting. Binding seen in cells or lysates may run through a third protein. Here binding means that the protein was enriched with, or labelled near, the bait; the list need not be complete.

B1: caveolae-associated protein 1 (protein, UniProt O54724 1-392)
chain: MEDVTLHIVERPYSGFPDASSEGPEPTQGEARATEEPSGTGSDELIKSDQVNGVLVLSLLDKIIGAVDQIQLTQAQLEERQAEMEGAVQSIQGELSKLGKAHATTSNTVSKLLEKVRKVSVNVKTVRGSLERQAGQIKKLEVNEAELLRRRNFKVMIYQDEVKLPAKLSVSKSLKESEALPEKEGDELGEGERPEDDTAAIELSSDEAVEVEEVIEESRAERIKRSGLRRVDDFKKAFSKEKMEKTKVRTRENLEKTRLKTKENLEKTRHTLEKRMNKLGTRLVPVERREKLKTSRDKLRKSFTPDHVVYARSKTAVYKVPPFTFHVKKIREGEVEVLKATEMVEVGPEDDEVGAERGEATDLLRGSSPDVHTLLEITEESDAVLVDKSDSD
As for B1, the binding result was “binds”.
